For one substance, crude mass and crude yield results are on record in patent US8501689B2 (Caragen Co., Ltd., priority 2008, dated 2013).

Where no end group is shown, it is not given here.

The nature of the data set: general procedure: peptide synthesis; chloro trityl chloride resin. As to conditions: whole synthesis.

For Ac-YKSKKGGWTH, the crude mass worked out at 1.18 g. Besides, the crude yield (scale of the general procedure 700 mg resin) is given as 72.6%.
